Some of these results come from one statement about several compounds together.
Test system: Ehux374 cells
Assay: Cell death by SYTOX Green staining (plasma membrane integrity)
Assay type: cell-based, Emiliana huxleyi
Details: control treatments (DMSO, PG)

Substance: phosphatidylglycerol [PG]
- positively stained cells: 5.8-10.2%
